Measured values: publication PMC11792593

Amino acid sequences for entries named in this document (tags omitted).
UniProt Q04206: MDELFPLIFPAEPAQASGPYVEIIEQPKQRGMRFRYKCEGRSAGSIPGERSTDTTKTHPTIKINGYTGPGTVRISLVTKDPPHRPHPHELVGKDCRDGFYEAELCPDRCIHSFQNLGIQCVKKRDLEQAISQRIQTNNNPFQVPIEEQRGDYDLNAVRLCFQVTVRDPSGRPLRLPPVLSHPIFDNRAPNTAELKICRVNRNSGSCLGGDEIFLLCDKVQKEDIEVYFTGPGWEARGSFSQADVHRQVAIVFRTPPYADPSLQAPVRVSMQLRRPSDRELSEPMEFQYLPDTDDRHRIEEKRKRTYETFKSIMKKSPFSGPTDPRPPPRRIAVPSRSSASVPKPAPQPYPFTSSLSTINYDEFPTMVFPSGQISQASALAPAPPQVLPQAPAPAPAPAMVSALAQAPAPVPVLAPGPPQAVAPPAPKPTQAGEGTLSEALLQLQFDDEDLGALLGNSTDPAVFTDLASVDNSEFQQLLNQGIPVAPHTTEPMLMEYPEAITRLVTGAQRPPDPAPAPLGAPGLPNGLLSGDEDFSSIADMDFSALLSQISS

How the values were obtained:
[1] = target: T1, EDF1 (endogenous, NC/control neuroblastoma cells) (human (endogenous in NB cell lines)) (UniProt O60869); test: affinity purification with mass spectrometry; EDF1-binding proteins immunoprecipitated by anti-EDF1 antibody from NB cells (NC and EDF1-overexpressed), followed by mass spectrometry
T1 sequence: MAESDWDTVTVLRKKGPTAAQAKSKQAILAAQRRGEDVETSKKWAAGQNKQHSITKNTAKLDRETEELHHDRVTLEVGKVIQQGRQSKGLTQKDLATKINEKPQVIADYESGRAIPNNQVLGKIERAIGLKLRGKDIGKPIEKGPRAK

[2] = target: T2, EDF1, full-length, overexpressed in NB cells (pcDNA3.1) (human) (UniProt O60869); test: as above
T2 sequence: T1 sequence

NF-κB p65/RelA (from UniProt Q04206 1-551)
binding [1]: binds | binding [2]: binds

These are yes or no findings as the source states them, for the method shown. Binding seen in cells or lysates may run through a third protein. Here binding means that the protein was enriched with, or labelled near, the bait; the list need not be complete.
